The list shows only some results of the screen, not a fair sample: it gathers tests that were run many times, whatever their T/C, doses with no T/C, and many T/C values between a quarter and a half above the control. Other doses and runs of a compound stand elsewhere. T/C is the treated group as % of the vehicle group. Some entries give survivors of the animals treated and no T/C: the source holds a T/C of zero for them, seemingly a mark for toxic or unscored doses. Some survivor counts are full or nearly so, which does not show that the dose was tolerated: the source hardly ever lists a survival T/C far under the control, and the zero likely stands for such cases as well. Counts of survivors are from the toxicity check (mostly the fifth day) where no day follows; animals may have died later. Schedule codes are those of the source, read here as Q, the interval in days (D) or hours (H), X, the number of doses. Signs of the kind (2×) give the number of equal values in this list. Some entries hold several experiments; their values stand side by side, smallest first. For survival time, this PubChem deposit counts one and a half times the control or more as active, and values a quarter to a half above the control carry no call in these data; other NCI protocols may use other cut-offs. Some T/C values carry the count of animals alive at the toxicity check (mostly the fifth day); where none is given, no animal had died by that day.
System: CD2F1 mice, L1210 leukemia ip, survival T/C
Assay: NCI In Vivo Anticancer Drug Screen. Data for tumor model L1210 Leukemia (intraperitoneal) in CD2F1 (CDF1) mice
Details: higher T/C = longer survival
Procedure, shortened: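 Antitumor effect is scored in animals hosting a serially transplanted tumor. Values compare compound-dosed animals against vehicle-only controls as a simple quotient.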

[1] = T/C endpoint: mean survival time, dose: 200.0 mg/kg/injection, schedule: Q01DX009 (ip), vehicle: saline with Tween-80
[2] = T/C endpoint: mean survival time, dose: 400.0 mg/kg/injection, schedule: Q01DX009 (ip), vehicle: saline with Tween-80
[3] = T/C endpoint: median survival time, dose: 120.0 mg/kg/injection, schedule: Q03HX009 (ip), vehicle: saline
[4] = T/C endpoint: mean survival time, dose: 200.0 mg/kg/injection, schedule: Q04DX003 (ip), vehicle: saline with Tween-80
[5] = T/C endpoint: mean survival time, dose: 400.0 mg/kg/injection, schedule: Q04DX003 (ip), vehicle: saline with Tween-80

Compound: C[C@H](CCC[C@H](C)OS(=O)(=O)c1ccccc1)OS(=O)(=O)c1ccccc1
- T/C (T/C endpoint: mean survival time, dose: 25.0 mg/kg/injection, schedule: Q01DX009 (ip), vehicle: saline with Tween-80): 91, 98, 104, 106 % of control
- T/C (T/C endpoint: mean survival time, dose: 50.0 mg/kg/injection, schedule: Q01DX009 (ip), vehicle: saline with Tween-80): 91, 97, 104 % of control (2×)
- T/C (T/C endpoint: mean survival time, dose: 100.0 mg/kg/injection, schedule: Q01DX009 (ip), vehicle: saline with Tween-80): 86, 98, 108, 110 % of control
- T/C [1]: 91, 112, 114 % of control
- survivor count [1]: 5 of 6
- survivor count [2]: 2 of 6

Compound: CC1(C)N=C(N)N=C(N)N1c1cccc(CC(=O)Nc2ccc(S(=O)(=O)F)cc2)c1
- T/C (T/C endpoint: mean survival time, dose: 200.0 mg/kg/injection, schedule: Q01DX009 (ip), vehicle: saline): 125 % of control
- T/C (T/C endpoint: mean survival time, dose: 400.0 mg/kg/injection, schedule: Q01DX009 (ip), vehicle: saline): 129 % of control [5 of 6 alive]

Compound: CC(=O)OC1CCCCC1C (configuration not stated)
- survivor count [2]: 1 of 6

Compound: O=C(CCC(O)c1ccccc1)c1ccccc1 (configuration not stated)
- survivor count (T/C endpoint: mean survival time, dose: 400.0 mg/kg/injection, schedule: Q04DX002 (ip), vehicle: saline with Tween-80): 3 of 3

Compound: [Br][Pt+2][Br].[NH-]C(CC([NH-])c1ccccc1)c1ccccc1 (configuration not stated)
- survivor count (T/C endpoint: mean survival time, dose: 25.0 mg/kg/injection, schedule: Q04DX003 (ip), vehicle: saline with Tween-80): 5 of 6
- survivor count (T/C endpoint: mean survival time, dose: 50.0 mg/kg/injection, schedule: Q04DX003 (ip), vehicle: saline with Tween-80): 1 of 6 (2×)

Compound: O=P(OCCCOCc1ccccc1)(N(CCCl)CCCl)N1CC1 (configuration not stated)
- T/C (T/C endpoint: mean survival time, dose: 800.0 mg/kg/injection, schedule: Q01DX001 (ip), vehicle: DMSO): 136 % of control

Compound: COC1=C(OC)C(=O)C(N(C)C)=C(CO)C1=O
- survivor count (T/C endpoint: median survival time, dose: 240.0 mg/kg/injection, schedule: Q01DX005 (ip), vehicle: saline): 0 of 6

Compound: CC[C@@]1(OC(=O)C(N)CCCCN)C(=O)OCc2c1cc1n(c2=O)Cc2cc3ccccc3nc2-1 (some centres not stated)
- T/C (T/C endpoint: median survival time, dose: 7.29 mg/kg/injection, schedule: Q04DX002 (ip), vehicle: water): 125 % of control
- T/C (T/C endpoint: median survival time, dose: 14.58 mg/kg/injection, schedule: Q04DX002 (ip), vehicle: water): 144 % of control
- survivor count (T/C endpoint: median survival time, dose: 43.75 mg/kg/injection, schedule: Q04HX004 (iv), vehicle: water): 1 of 6 and 3 of 6
- survivor count (T/C endpoint: median survival time, dose: 58.33 mg/kg/injection, schedule: Q04HX004 (iv), vehicle: water): 0 of 6 and 1 of 6

Compound: Nc1nc2c(ncn2-c2ccc(OCCCc3ccccc3)cc2)c(=O)[nH]1
- survivor count (T/C endpoint: mean survival time, dose: 100.0 mg/kg/injection, schedule: Q01DX001 (ip), vehicle: saline with Tween-80): 5 of 6

Compound: Nc1nc(Br)nc2c1ncn2C1CC(O)C(CO)O1 (configuration not stated)
- T/C (T/C endpoint: median survival time, dose: 3.75 mg/kg/injection, schedule: Q03HX009 (ip), vehicle: water): 133 % of control
- T/C (T/C endpoint: median survival time, dose: 7.5 mg/kg/injection, schedule: Q03HX009 (ip), vehicle: saline): 132 (3×) and 134 % of control
- T/C (T/C endpoint: median survival time, dose: 7.5 mg/kg/injection, schedule: Q03HX009 (ip), vehicle: suspension in saline): 131 % of control (2×)
- T/C (T/C endpoint: median survival time, dose: 7.5 mg/kg/injection, schedule: Q03HX009 (ip), vehicle: water): 141 % of control
- T/C (T/C endpoint: median survival time, dose: 15.0 mg/kg/injection, schedule: Q03HX009 (ip), vehicle: saline): 139, 150, 168 (2×), 214 % of control
- T/C (T/C endpoint: median survival time, dose: 15.0 mg/kg/injection, schedule: Q03HX009 (ip), vehicle: suspension in saline): 147 % of control (2×)
- T/C (T/C endpoint: median survival time, dose: 15.0 mg/kg/injection, schedule: Q03HX024 (ip), vehicle: saline): 144 % of control
- T/C (T/C endpoint: median survival time, dose: 30.0 mg/kg/injection, schedule: Q03HX009 (ip), vehicle: saline): 188, 192, 204, 216 % of control (2×)
- T/C (T/C endpoint: median survival time, dose: 60.0 mg/kg/injection, schedule: Q03HX009 (ip), vehicle: saline): 180 (2×), 181, 208 % of control
- T/C [3]: 87 [4 of 6 alive on day 4] (2×) and 90 % of control
- survivor count [3]: 3 of 6
- survivor count (T/C endpoint: median survival time, dose: 180.0 mg/kg/injection, schedule: Q03DX003 (ip), vehicle: saline): 3 of 6

Compound: COc1ccc2c(c1O)-c1cc(O)cc3c1C(C2)N(CCCl)CC3 (configuration not stated)
- survivor count (T/C endpoint: mean survival time, dose: 50.0 mg/kg/injection, schedule: Q04DX003 (ip), vehicle: DMSO): 5 of 6
- survivor count (T/C endpoint: mean survival time, dose: 100.0 mg/kg/injection, schedule: Q04DX003 (ip), vehicle: DMSO): 4 of 6
- survivor count (T/C endpoint: mean survival time, dose: 200.0 mg/kg/injection, schedule: Q04DX003 (ip), vehicle: DMSO): 0 of 6
- survivor count (T/C endpoint: mean survival time, dose: 400.0 mg/kg/injection, schedule: Q04DX003 (ip), vehicle: DMSO): 0 of 6

Compound: O=Cc1ccccc1
- survivor count (T/C endpoint: mean survival time, dose: 800.0 mg/kg/injection, schedule: Q01DX009 (ip), vehicle: Klucel (hydroxypropylcellulose) (HPC)): 0 of 6

Compound: BrC1=C(Br)C(Br)(Br)C(Br)=C1Br
- survivor count (T/C endpoint: mean survival time, dose: 10.0 mg/kg/injection, schedule: Q01DX009 (ip), vehicle: saline with Tween-80): 0 of 6
- survivor count (T/C endpoint: mean survival time, dose: 20.0 mg/kg/injection, schedule: Q01DX009 (ip), vehicle: saline with Tween-80): 0 of 6
- survivor count (T/C endpoint: mean survival time, dose: 40.0 mg/kg/injection, schedule: Q01DX009 (ip), vehicle: saline with Tween-80): 0 of 6

Compound: NC(=O)c1[nH]cnc1NN=NCCF
- survivor count (T/C endpoint: mean survival time, dose: 50.0 mg/kg/injection, schedule: Q01DX001 (ip), vehicle: Klucel (hydroxypropylcellulose) (HPC)): 0 of 6
- survivor count (T/C endpoint: mean survival time, dose: 100.0 mg/kg/injection, schedule: Q01DX001 (ip), vehicle: Klucel (hydroxypropylcellulose) (HPC)): 0 of 6
- survivor count (T/C endpoint: mean survival time, dose: 200.0 mg/kg/injection, schedule: Q01DX001 (ip), vehicle: Klucel (hydroxypropylcellulose) (HPC)): 0 of 6

Compound: O=C(O[Si](Cc1ccccc1)(Cc1ccccc1)Cc1ccccc1)N(CCCl)CCCl
- T/C (T/C endpoint: mean survival time, dose: 12.5 mg/kg/injection, schedule: Q01DX009 (ip), vehicle: distilled water + Tween-80): 127 % of control
- T/C (T/C endpoint: mean survival time, dose: 50.0 mg/kg/injection, schedule: Q01DX009 (ip), vehicle: distilled water + Tween-80): 127 % of control
- T/C (T/C endpoint: mean survival time, dose: 100.0 mg/kg/injection, schedule: Q01DX009 (ip), vehicle: distilled water + Tween-80): 129 % of control

Compound: O=C(Nc1ccc(C2=NCCN2)cc1)c1ccc(C(=O)Nc2ccc(C3=NCCN3)cc2)c([N+](=O)[O-])c1
- T/C (T/C endpoint: mean survival time, dose: 5.0 mg/kg/injection, schedule: Q01DX009 (ip), vehicle: saline): 127 % of control
- T/C (T/C endpoint: mean survival time, dose: 20.0 mg/kg/injection, schedule: Q03DX003 (ip), vehicle: saline): 125 % of control [5 of 6 alive]
- survivor count (T/C endpoint: mean survival time, dose: 32.0 mg/kg/injection, schedule: Q01DX009 (ip), vehicle: saline): 2 of 6
- survivor count (T/C endpoint: mean survival time, dose: 64.0 mg/kg/injection, schedule: Q01DX009 (ip), vehicle: saline): 0 of 6

Compound: Cc1ccccc1-[n+]1nc(-c2ccccc2)nn1-c1ccccc1
- survivor count (T/C endpoint: mean survival time, dose: 2.5 mg/kg/injection, schedule: Q01DX009 (ip), vehicle: saline sonified): 2 of 6
- survivor count (T/C endpoint: mean survival time, dose: 5.0 mg/kg/injection, schedule: Q01DX009 (ip), vehicle: saline sonified): 2 of 6
- survivor count (T/C endpoint: mean survival time, dose: 10.0 mg/kg/injection, schedule: Q04DX003 (ip), vehicle: saline with Tween-80): 0 of 6
- survivor count (T/C endpoint: mean survival time, dose: 20.0 mg/kg/injection, schedule: Q04DX003 (ip), vehicle: saline with Tween-80): 0 of 6
- survivor count (T/C endpoint: mean survival time, dose: 100.0 mg/kg/injection, schedule: Q04DX003 (ip), vehicle: saline with Tween-80): 0 of 6
- survivor count [4]: 0 of 6
- survivor count [5]: 0 of 6

Compound: C[n+]1ccc(Nc2ccc(NC(=O)c3ccc(Nc4cc[n+](C)c5ccc([N+](=O)[O-])cc45)cc3[N+](=O)[O-])cc2)cc1
- T/C (T/C endpoint: mean survival time, dose: 118.0 mg/kg/injection, schedule: Q04DX003 (ip), vehicle: saline with Tween-80): 131 % of control
- T/C (T/C endpoint: mean survival time, dose: 178.0 mg/kg/injection, schedule: Q04DX003 (ip), vehicle: saline with Tween-80): 148 % of control
- T/C [4]: 131 % of control
- T/C [5]: 135 and 140 % of control
- survivor count [5]: 5 of 6
- survivor count (T/C endpoint: mean survival time, dose: 600.0 mg/kg/injection, schedule: Q04DX003 (ip), vehicle: saline with Tween-80): 2 of 6

Compound: CC/C(=C(/CC)c1ccc(OP(N)(=O)N(CCCl)CCCl)cc1)c1ccc(OP(N)(=O)N(CCCl)CCCl)cc1 (configuration not stated)
- survivor count (T/C endpoint: mean survival time, dose: 450.0 mg/kg/injection, schedule: Q01DX001 (ip), vehicle: DMSO): 3 of 6

Compound: COc1ccccc1NC(=O)N(CCCl)N=O
- T/C (T/C endpoint: mean survival time, dose: 2.3 mg/kg/injection, schedule: Q01DX009 (ip), vehicle: carboxymethylcellulose (CMC)): 129 % of control

Compound: O=C(C[n+]1ccccc1)N/N=C/c1ccc(Cl)cc1
- survivor count [1]: 3 of 6
- survivor count [2]: 0 of 6

Compound: CC(=O)C1=C(C)NC(C)=C(C(C)=O)C1C
- survivor count [2]: 3 of 6

Source: PubChem BioAssay AID256 (DTP/NCI, 2004)
